Data published in PMC3639976.
Results are given in words; binding and its absence hold for the method and conditions named. Binding seen in cells or lysates may run through a third protein. A result given as binding can be weak or reduced; the word gives no strength. For some of these results: Tags and fused reporters may be left off the sequences shown.

Amino acid sequences for entries named in this document (tags omitted). A change or cut given only in a name is not applied to a line headed by its entry.
UniProt O43318: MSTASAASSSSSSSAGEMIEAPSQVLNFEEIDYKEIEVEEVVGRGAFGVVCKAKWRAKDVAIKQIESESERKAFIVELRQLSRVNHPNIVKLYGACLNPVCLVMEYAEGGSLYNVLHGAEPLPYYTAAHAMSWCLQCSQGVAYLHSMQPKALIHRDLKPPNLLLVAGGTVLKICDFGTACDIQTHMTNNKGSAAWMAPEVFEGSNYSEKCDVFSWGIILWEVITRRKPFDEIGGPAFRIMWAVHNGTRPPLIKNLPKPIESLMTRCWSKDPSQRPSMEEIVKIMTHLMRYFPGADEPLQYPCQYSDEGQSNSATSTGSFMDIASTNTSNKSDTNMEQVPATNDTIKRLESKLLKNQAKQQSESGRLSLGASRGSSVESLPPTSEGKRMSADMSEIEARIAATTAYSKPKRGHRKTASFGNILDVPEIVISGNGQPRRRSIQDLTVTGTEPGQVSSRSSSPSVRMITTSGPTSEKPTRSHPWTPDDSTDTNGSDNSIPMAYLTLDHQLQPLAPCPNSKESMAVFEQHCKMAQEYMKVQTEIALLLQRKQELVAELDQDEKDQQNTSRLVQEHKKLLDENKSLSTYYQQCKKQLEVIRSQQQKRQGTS
UniProt P04792: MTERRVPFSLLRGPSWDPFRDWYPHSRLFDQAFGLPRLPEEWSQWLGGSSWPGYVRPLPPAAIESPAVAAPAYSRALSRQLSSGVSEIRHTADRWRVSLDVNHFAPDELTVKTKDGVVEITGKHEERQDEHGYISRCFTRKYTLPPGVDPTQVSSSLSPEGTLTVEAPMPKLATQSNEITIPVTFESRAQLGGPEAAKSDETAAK

Experiments:
[1] = biological target: GFP-tagged TAK1 (UniProt O43318); assay: co-IP; HEK293IL-1R cells transfected, GFP-TAK1 co-expressed with MYC-TAB1; pulldown with GFP-Trap_A agarose beads, 2 h at 4°C, washes with lysis buffer (0,5 M NaCl); immunoblotting
[2] = biological target: GFP-tagged TAK1 (UniProt O43318); assay: co-IP; HEK293IL-1R cells transfected, GFP-TAK1 or GFP-TAB1 alone (no co-expressed MYC-TAB1); pulldown with GFP-Trap_A agarose beads, 2 h at 4°C, washes with lysis buffer (0,5 M NaCl); immunoblotting
[3] = biological target: GFP-tagged TAK1 (UniProt O43318); assay: as above; remark: listed apart in the source

binding [1]	binding [2]	binding [3]	Molecule
binds	binds		HA-tagged HSP27 (from UniProt P04792 1-205)
binds	binds		3xFLAG-PPARβ/δ (from UniProt P35396 1-440)
binds			MYC-tagged TAB1 (protein, UniProt Q15750 1-504) MAAQRRSLLQSEQQPSWTDDLPLCHLSGVGSASNRSYSADGKGTESHPPEDSWLKFRSENNCFLYGVFNGYDGNRVTNFVAQRLSAELLLGQLNAEHAEADVRRVLLQAFDVVERSFLESIDDALAEKASLQSQLPEGVPQHQLPPQYQKILERLKTLEREISGGAMAVVAVLLNNKLYVANVGTNRALLCKSTVDGLQVTQLNVDHTTENEDELFRLSQLGLDAGKIKQVGIICGQESTRRIGDYKVKYGYTDIDLLSAAKSKPIIAEPEIHGAQPLDGVTGFLVLMSEGLYKALEAAHGPGQANQEIAAMIDTEFAKQTSLDAVAQAVVDRVKRIHSDTFASGGERARFCPRHEDMTLLVRNFGYPLGEMSQPTPSPAPAAGGRVYPVSVPYSSAQSTSKTSVTLSLVMPSQGQMVNGAHSASTLDEATPTLTNQSPTLTLQSTNTHTQSSSSSSDGGLFRSRPAHSLPPGEDGRVEPYVDFAEFYRLWSVDHGEQSVVTAP
binds		binds	3xFLAG-PPARβ/δ 166–440 (domain or fragment, UniProt P35396 166-440) QHNPQLADLKAFSKHIYNAYLKNFNMTKKKARSILTGKSSHNAPFVIHDIETLWQAEKGLVWKQLVNGLPPYNEISVHVFYRCQSTTVETVRELTEFAKNIPNFSSLFLNDQVTLLKYGVHEAIFAMLASIVNKDGLLVANGSGFVTHEFLRSLRKPFSDIIEPKFEFAVKFNALELDDSDLALFIAAIILCGDRPGLMNVPQVEAIQDTILRALEFHLQVNHPDSQYLFPKLLQKMADLRQLVTEHAQMMQWLKKTESETLLHPLLQEIYKDMY
